The assay addresses T1, FLAG-tagged wild-type Cas (p130Cas, Crk-associated substrate) (UniProt Q61140).
T1 sequence: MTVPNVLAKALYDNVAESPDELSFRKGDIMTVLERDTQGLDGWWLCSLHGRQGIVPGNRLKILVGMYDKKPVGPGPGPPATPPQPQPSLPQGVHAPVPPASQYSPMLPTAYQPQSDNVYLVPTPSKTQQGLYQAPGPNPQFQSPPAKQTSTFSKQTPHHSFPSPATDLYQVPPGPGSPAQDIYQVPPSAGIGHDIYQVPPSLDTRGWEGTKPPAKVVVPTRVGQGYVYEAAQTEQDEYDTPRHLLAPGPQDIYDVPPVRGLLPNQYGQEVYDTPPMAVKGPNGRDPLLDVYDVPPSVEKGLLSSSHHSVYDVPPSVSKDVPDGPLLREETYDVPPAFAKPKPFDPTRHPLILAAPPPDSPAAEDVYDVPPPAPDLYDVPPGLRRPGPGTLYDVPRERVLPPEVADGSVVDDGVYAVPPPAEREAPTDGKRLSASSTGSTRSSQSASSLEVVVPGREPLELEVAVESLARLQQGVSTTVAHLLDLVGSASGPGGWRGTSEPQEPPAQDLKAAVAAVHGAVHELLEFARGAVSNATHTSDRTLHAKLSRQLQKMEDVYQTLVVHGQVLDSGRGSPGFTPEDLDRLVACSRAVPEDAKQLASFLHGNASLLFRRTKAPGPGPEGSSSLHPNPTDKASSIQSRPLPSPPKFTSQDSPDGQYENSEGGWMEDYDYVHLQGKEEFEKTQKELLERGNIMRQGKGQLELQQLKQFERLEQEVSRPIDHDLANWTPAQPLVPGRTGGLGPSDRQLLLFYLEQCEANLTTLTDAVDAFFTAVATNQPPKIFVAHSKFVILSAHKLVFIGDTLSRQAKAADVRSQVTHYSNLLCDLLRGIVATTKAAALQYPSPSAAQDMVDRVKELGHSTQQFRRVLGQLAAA
As to the kind of experiment: co-IP; anti-FLAG (M2) Affinity Gel on lysates of HEK293T cells co-transfected 24 h with FLAG-Cas variants and Cerulean-tensin 1 variants; anti-GFP blot detects Cerulean.

By UniProt entry, the sequences of proteins in these tests, tags left out.
UniProt Q04205: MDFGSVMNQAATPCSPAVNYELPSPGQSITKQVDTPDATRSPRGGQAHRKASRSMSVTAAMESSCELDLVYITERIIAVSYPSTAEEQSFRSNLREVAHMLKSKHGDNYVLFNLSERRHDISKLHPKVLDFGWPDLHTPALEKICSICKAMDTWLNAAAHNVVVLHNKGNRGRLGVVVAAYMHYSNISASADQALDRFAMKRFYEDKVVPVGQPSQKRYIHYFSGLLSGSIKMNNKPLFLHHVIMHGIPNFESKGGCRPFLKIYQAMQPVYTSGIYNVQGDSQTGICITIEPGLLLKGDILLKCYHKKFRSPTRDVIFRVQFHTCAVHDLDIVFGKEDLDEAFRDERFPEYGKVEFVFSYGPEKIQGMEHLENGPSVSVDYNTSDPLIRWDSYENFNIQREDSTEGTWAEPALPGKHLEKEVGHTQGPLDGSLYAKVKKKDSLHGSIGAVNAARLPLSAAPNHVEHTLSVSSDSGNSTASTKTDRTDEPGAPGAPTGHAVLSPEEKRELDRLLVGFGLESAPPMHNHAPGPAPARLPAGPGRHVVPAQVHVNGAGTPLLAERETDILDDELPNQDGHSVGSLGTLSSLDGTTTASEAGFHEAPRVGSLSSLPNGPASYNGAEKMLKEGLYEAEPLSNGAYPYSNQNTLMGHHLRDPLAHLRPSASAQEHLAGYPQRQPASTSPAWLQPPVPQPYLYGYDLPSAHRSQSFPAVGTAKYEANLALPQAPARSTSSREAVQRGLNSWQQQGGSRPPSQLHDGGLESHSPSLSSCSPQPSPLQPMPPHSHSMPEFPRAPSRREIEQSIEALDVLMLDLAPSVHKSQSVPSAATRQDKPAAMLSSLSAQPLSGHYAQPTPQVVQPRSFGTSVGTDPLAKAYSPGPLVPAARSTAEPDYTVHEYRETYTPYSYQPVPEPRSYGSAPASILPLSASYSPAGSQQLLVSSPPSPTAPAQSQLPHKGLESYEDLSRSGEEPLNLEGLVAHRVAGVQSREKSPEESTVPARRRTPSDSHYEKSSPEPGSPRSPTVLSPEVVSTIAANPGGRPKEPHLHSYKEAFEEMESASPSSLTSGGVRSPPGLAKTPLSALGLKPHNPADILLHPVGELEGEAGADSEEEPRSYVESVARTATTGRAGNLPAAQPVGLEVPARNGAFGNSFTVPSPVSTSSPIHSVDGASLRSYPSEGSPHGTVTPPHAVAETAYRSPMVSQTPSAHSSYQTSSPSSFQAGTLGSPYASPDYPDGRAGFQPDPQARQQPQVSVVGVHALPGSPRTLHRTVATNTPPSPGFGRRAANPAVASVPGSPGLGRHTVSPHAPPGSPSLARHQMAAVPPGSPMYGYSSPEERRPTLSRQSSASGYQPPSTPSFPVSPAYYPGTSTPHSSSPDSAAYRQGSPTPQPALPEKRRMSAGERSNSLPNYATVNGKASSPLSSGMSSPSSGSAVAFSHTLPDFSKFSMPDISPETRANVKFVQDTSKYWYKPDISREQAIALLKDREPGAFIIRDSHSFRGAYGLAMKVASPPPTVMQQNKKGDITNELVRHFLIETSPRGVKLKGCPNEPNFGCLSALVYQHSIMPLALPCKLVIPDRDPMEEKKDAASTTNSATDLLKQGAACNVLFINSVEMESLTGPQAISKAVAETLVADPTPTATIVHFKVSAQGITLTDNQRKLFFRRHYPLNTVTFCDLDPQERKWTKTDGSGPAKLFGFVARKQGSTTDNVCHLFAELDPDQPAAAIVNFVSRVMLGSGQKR

No constants are given. Whether binding was seen depends on the method and setting. Binding seen in cells or lysates may run through a third protein. Some binding calls cover weakened binding; strength is not graded here. Where a sequence is shown, tags or fusion partners need not be part of it.

Consider “Cerulean-tagged tensin 1 (full-length) (from UniProt Q04205 1-1744)”, for which the binding entry is listed as “binds”.

The values are drawn from publication PMC4890666.
